Library screening results

By UniProt entry, the sequences of proteins in these tests, tags left out.
UniProt E9BF75, entry or part of it: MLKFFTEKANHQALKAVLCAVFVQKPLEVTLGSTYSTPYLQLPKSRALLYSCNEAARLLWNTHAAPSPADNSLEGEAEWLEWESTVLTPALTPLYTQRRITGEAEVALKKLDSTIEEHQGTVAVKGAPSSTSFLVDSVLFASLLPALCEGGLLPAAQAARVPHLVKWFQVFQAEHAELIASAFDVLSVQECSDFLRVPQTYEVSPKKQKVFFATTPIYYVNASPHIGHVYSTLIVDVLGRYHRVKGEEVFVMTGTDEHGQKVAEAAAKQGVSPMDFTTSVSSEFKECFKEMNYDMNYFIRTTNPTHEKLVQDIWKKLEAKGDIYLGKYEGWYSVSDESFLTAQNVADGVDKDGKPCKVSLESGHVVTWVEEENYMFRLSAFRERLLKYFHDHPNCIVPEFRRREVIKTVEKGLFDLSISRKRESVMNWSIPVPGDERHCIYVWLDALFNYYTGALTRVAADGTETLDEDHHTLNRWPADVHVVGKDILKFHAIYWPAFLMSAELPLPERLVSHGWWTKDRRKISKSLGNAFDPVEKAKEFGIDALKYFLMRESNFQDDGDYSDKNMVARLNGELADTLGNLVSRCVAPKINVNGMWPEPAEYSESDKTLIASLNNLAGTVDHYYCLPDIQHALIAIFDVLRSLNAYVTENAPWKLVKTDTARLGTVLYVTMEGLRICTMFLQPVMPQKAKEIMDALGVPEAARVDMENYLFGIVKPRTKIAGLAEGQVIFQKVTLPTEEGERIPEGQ

Results are percentages, as filed. The record does not define 0% and 100%; most values in the screen are far below 50% and negative numbers occur (in some assays of this library far below -100). Compounds were drawn at random from those tested, without regard to their results.

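Methionyl-tRNA synthetase (putative), Leishmania donovani (UniProt E9BF75). Primary screen of methionyl-tRNA synthetase; the read-out is not stated. The test concentration is not given. The values are filed as inhibition. Size under these conditions: about 68,000 compounds, about 24 of them at 50% or above in at least one test.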

For COCCN1C[C@@H]2[C@@H](OC)CCN(Cc3ccsc3)[C@@H]2C1 the result was 22.5%. CCN1CCN(C(=O)CCC2CCN(C(C)CCC(=O)OC)CC2)CC1 (configuration not stated) gave 5.59%. For Cc1cnc(CCN(C)C(=O)c2cccc(C)c2O)s1 the result was 9.254%. O=C(c1ccc(Cl)cc1)N1CCn2c(nn(-c3ccncc3)c2=O)C1 read 12.57%. With Cc1cc(C)n(C2CN(CCC(N)=O)C2)n1 the screen gave 19.68%. CC(c1nc(C(C)(C)C)no1)N1CCN(Cc2ccc(C#N)cc2)CC1 (configuration not stated) gave 15.56%. O=C(c1ccccn1)N1CCC2(COc3ncccc3S(=O)(=O)N2)C1 (configuration not stated) gave 5.143%.

CC(NC(=O)NCCCn1cccn1)c1cccnc1 (configuration not stated) read 2.927%. Cc1nc(C(NC(=O)CC(F)(F)F)c2ccc(Cl)cc2)no1 (configuration not stated) read 14.49%. For CC(C)CN1CC2(CCN(C(=O)c3cnccn3)CC2)CC1=O the result was 7.988%. Cn1cccc1-c1nnc(C2(c3ccc4c(c3)OCO4)CCOCC2)o1 gave 6.774%. CN(Cc1cccnc1N)Cc1cccc2ncccc12 gave 11.75%. CN1CCOC(CNCc2coc(-c3ccc(Cl)cc3)n2)C1 (configuration not stated) gave 16.67%. CC1CCN(c2cncc(CCC3CCCN3)n2)CC1 (configuration not stated) gave 11.49%.

Result for O=C(O)c1cc(-c2ccncc2)cc(S(=O)(=O)NCc2ccccn2)c1 was 6.267%. Result for CCOc1ccccc1C(=O)NS(=O)(=O)c1ccc2c(c1)OCCCO2 was -7.874%. With Cc1n[nH]c(C)c1Sc1ccccc1NC(=O)N1CCOCC(O)C1 (configuration not stated) the screen gave 6.944%. With O=C(c1cc(-c2ccco2)cs1)N1CCCC1 the screen gave 22.66%. For COc1ccc(C2=C(C)C(N3CCc4ccccc4C3)=NS2(=O)=O)cc1 the result was -3.922%. COc1ccc(C(NCc2cccc(C#N)c2)C2CC2)cc1 (configuration not stated) read 18.21%. Cn1cccc1C(=O)N1CCC2(CC1)CCN2S(C)(=O)=O gave 8.759%.

Result for O=C(Nc1ccc(OC2CCCC2)cc1)C1CCCN1c1nccs1 (configuration not stated) was 16.71%. For CC(=O)c1ccc(NC(=O)NC(C(=O)N(C)C)C(C)C)cc1 (configuration not stated) the result was 1.761%. Result for COc1cc(CNC(=O)N2CCCC2c2cc(C)no2)ccn1 (configuration not stated) was 18.18%. Result for Cc1cccc(N2CCN(CCC(=O)NCc3nnc[nH]3)CC2)c1 was 4.467%. With CCCNC(=O)CCNc1cncc(-n2nc(C)cc2C)n1 the screen gave 14.08%. CC(C)c1nnc(CN2CCc3ccc(S(N)(=O)=O)cc32)o1 gave 9.218%. With CN(C)C(=O)CC1CC2(CCN(Cc3ccsc3)CC2)c2ccccc21 (configuration not stated) the screen gave 12.39%.

CCc1ccc(C2CC(=O)Nc3c2c(=O)[nH]n3C(C)C)cc1 (configuration not stated) read 5.81%. NC(=O)CS(=O)(=O)Cc1ccc(F)cc1 gave 12.03%. With CCOCCN1Cc2cnn(C)c2C(COCC)C1 (configuration not stated) the screen gave 7.937%. Result for CC1CCC(NS(=O)(=O)CC(=O)NC2(C(N)=O)CCCC2)CC1 (configuration not stated) was 20.12%. With CCc1ocnc1C(=O)N1CCCC1c1noc(C)n1 (configuration not stated) the screen gave 13.16%. CC(C)Oc1ncccc1CNC(=O)c1cc[nH]n1 gave 12.42%. CCOc1ccc(CNC(C)c2c(C)nn(C)c2C)cc1 (configuration not stated) read -1.805%.

CC(=O)N1CCC(Cc2cnc(C(=O)N3CCCC3)cn2)C1 (configuration not stated) gave 5.178%. Fc1cccc(CN2CCC[C@H](Cn3nnc(-c4ccccn4)n3)C2)c1 gave 15.12%. Result for Cc1cc(C)c2[nH]c(=O)c(CN3CCCC(O)(CO)C3)cc2c1 (configuration not stated) was 18.51%. Cc1cc(I)c2c(c1)C(=O)C(CN1CCCC1)(CN1CCCC1)CO2 read 17.57%. For Cc1sc(-c2ccco2)nc1C(=O)N(CC(N)=O)C1CCCC1 the result was 7.94%. Result for COC(=O)NCC(=O)N(C)Cc1csc(C)n1 was -0.6211%. Result for O=C(Nc1nnc(C2CC2)s1)NC1CCN(Cc2ccccc2)C1 (configuration not stated) was 4.294%.

Cc1nc(CNC(=O)Nc2c(C)n[nH]c2C)cs1 read 14.8%. CCn1cc(CN2CCCN(C(=O)CCc3cnn(C)c3)CC2)cn1 gave 14.53%. With Cc1ccc(C)c(S(=O)(=O)NC(=O)COc2cccc(C#N)c2)c1 the screen gave 7.542%. With CN(C)c1ncc(-c2ccc(C(N)=O)cc2)c(C2CNCCO2)n1 (configuration not stated) the screen gave 3.459%. O=C(c1ccc(NCc2cccc(F)c2)cc1)N1CCC(CO)CC1 read 8.527%. O=C(CS(=O)(=O)Cc1cccc(Br)c1)Nc1cn[nH]c1 read 14.37%. Result for CN(CC(=O)Nc1cccnc1)CC1CCCN1c1cccnn1 (configuration not stated) was 23.08%.

Result for CCN1CCN(C(C)CNC(=O)Nc2nnc(C)s2)CC1 (configuration not stated) was 18.01%.

The last 6 entries again:

SMILES,Inhibition
Cc1ccc(C)c(S(=O)(=O)NC(=O)COc2cccc(C#N)c2)c1,7.542%
CN(C)c1ncc(-c2ccc(C(N)=O)cc2)c(C2CNCCO2)n1 (configuration not stated),3.459%
O=C(c1ccc(NCc2cccc(F)c2)cc1)N1CCC(CO)CC1,8.527%
O=C(CS(=O)(=O)Cc1cccc(Br)c1)Nc1cn[nH]c1,14.37%
CN(CC(=O)Nc1cccnc1)CC1CCCN1c1cccnn1 (configuration not stated),23.08%
CCN1CCN(C(C)CNC(=O)Nc2nnc(C)s2)CC1 (configuration not stated),18.01%

Data taken from ChEMBL document CHEMBL3988442, “University of Dundee, Small-Polar-MMV Screening Library” (2021).